According to patent EP0960942A2:
No constants are given. Whether binding was seen depends on the method and setting. Some results given as binding are weak or reduced against the parent protein; the word gives no strength.

Amino acid sequences for entries named in this document (tags omitted).
UniProt P30825: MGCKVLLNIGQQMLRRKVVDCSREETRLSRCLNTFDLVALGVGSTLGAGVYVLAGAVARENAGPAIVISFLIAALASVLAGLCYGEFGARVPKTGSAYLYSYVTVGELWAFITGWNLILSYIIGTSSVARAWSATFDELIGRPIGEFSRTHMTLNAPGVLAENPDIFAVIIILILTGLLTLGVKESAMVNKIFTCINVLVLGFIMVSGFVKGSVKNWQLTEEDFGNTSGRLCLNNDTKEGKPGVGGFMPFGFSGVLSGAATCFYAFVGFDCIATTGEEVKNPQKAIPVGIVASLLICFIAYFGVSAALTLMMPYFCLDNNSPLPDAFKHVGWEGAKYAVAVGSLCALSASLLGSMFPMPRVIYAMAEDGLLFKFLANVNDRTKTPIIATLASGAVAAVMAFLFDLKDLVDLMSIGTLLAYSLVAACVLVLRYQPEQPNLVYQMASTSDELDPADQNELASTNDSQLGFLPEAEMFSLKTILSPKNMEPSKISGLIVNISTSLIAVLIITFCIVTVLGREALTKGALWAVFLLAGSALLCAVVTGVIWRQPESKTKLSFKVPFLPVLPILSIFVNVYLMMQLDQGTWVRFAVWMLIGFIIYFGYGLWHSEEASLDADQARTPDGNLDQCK

Columns and labels:
[1] = target: biotinylated hCAT1 peptide (synthetic peptide of the predicted third extracellular domain of hCAT1, N-terminal biotin and linker KRR) (human); assay: phage ELISA on biotinylated hCAT1 peptide captured on streptavidin
[2] = target: human cationic amino acid transporter-1 (hCAT1) on 911-hCAT1-k08 cells (human) (UniProt P30825); assay: titering of cell bound, eluted and cell associated phage on E.coli
[3] = target: human cationic amino acid transporter-1 (hCAT1) on 911-hCAT1-k08 cells (human) (UniProt P30825); assay: flow cytometry, 10^11 phage on 911-pcDNA3 and 911-hCAT1(k08) cells, anti-m13 detection

Measured: binding

m13 phage displaying the 12 mer peptide … (clone # 26) (from UniProt P69168 19-424)
binds: all assays above
